According to the supplement of paper PMC4604168 (melanoma cell lines):
The other results are listed elsewhere or left out. Repeats are few or missing, and single values can be far off.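 Imaging used 1,536-well plates; nuclei positive for cleaved PARP by antibody were divided by total DNA-stained nuclei to yield the apoptosis fraction. Doses for screening kept most cells viable, and cell lines differ markedly in resting and induced cleaved-PARP levels.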

Tested on: SkMel30
Test: cleaved PARP positive nuclei fraction relative to DMSO control; melanoma cells; higher = more apoptosis
Settings: library dose: low library concentration; 72 h

SMILES	cleaved PARP positive nuclei fraction
C#Cc1cccc(Nc2ncnc3cc(OCCOC)c(OCCOC)cc23)c1 [erlotinib] + COCC[n+]1c2c(n(Cc3cnccn3)c1C)C(=O)c1ccccc1C2=O [YM155] (first compound 0.8 µM, partner dose 0.0004 µM)	73.1%
Cc1nc(Nc2ncc(C(=O)Nc3c(C)cccc3Cl)s2)cc(N2CCN(CCO)CC2)n1 [dasatanib] + Cn1c(Nc2ccc(C(F)(F)F)cc2)nc2cc(Oc3ccnc(-c4ncc(C(F)(F)F)[nH]4)c3)ccc21 [CHIR265] (first compound 0.004 µM, partner dose 0.08 µM)	84.4%
CC(C)(C)c1cnc(CSc2cnc(NC(=O)C3CCNCC3)s2)o1 + Cc1cc(N2CCOCC2)cc2[nH]c(-c3c(NC[C@@H](O)c4cccc(Cl)c4)cc[nH]c3=O)nc12 [BMS536924] (first compound 0.01 µM, partner dose 0.2 µM)	161%
OCc1c[nH]c2ccccc12 [Indole-3-carbinol] + Nc1cccc2c1CN(C1CCC(=O)NC1=O)C2=O [lenalidomide] (first compound 0.8 µM, partner dose 1 µM)	36.6%
Cn1c(Nc2ccc(C(F)(F)F)cc2)nc2cc(Oc3ccnc(-c4ncc(C(F)(F)F)[nH]4)c3)ccc21 + Nc1cccc2c1CN(C1CCC(=O)NC1=O)C2=O [lenalidomide] (first compound 0.08 µM, partner dose 1 µM)	168%
Clc1ccc(Nc2nnc(Cc3ccncc3)c3ccccc23)cc1 [vatalanib] + Cc1nc(Nc2ncc(C(=O)Nc3c(C)cccc3Cl)s2)cc(N2CCN(CCO)CC2)n1 [dasatanib] (first compound 2 µM, partner dose 0.004 µM)	60.8%
OCc1c[nH]c2ccccc12 [Indole-3-carbinol] + O=S(=O)(c1ccccc1)N(CC(F)(F)F)c1ccc(C(O)(C(F)(F)F)C(F)(F)F)cc1 [T0901317] (first compound 0.8 µM, partner dose 1.4 µM)	18.2%
C=CCNC1=C2C[C@@H](C)C[C@H](OC)[C@H](O)[C@@H](C)/C=C(\C)[C@H](OC(N)=O)[C@@H](OC)/C=C\C=C(/C)C(=O)NC(=CC1=O)C2=O [Tanespimycin] + Nc1cccc2c1CN(C1CCC(=O)NC1=O)C2=O [lenalidomide] (first compound 0.002 µM, partner dose 1 µM)	72.2%
C=CCNC1=C2C[C@@H](C)C[C@H](OC)[C@H](O)[C@@H](C)/C=C(\C)[C@H](OC(N)=O)[C@@H](OC)/C=C\C=C(/C)C(=O)NC(=CC1=O)C2=O [Tanespimycin] + OCc1c[nH]c2ccccc12 [Indole-3-carbinol] (first compound 0.002 µM, partner dose 0.8 µM)	91.2%
C=CCNC1=C2C[C@@H](C)C[C@H](OC)[C@H](O)[C@@H](C)/C=C(\C)[C@H](OC(N)=O)[C@@H](OC)/C=C\C=C(/C)C(=O)NC(=CC1=O)C2=O [Tanespimycin] + CC(=O)c1c(C)c2cnc(Nc3ccc(N4CCNCC4)cn3)nc2n(C2CCCC2)c1=O [palbociclib] (first compound 0.002 µM, partner dose 0.04 µM)	111%
C#Cc1cccc(Nc2ncnc3cc(OCCOC)c(OCCOC)cc23)c1 [erlotinib] + Cn1c(Nc2ccc(C(F)(F)F)cc2)nc2cc(Oc3ccnc(-c4ncc(C(F)(F)F)[nH]4)c3)ccc21 [CHIR265] (first compound 0.8 µM, partner dose 0.08 µM)	154%
C#Cc1cccc(Nc2ncnc3cc(OCCOC)c(OCCOC)cc23)c1 [erlotinib] + Cn1nnc2c(C(N)=O)ncn2c1=O [temozolomide] (first compound 0.8 µM, partner dose 2 µM)	96.7%
Cn1c(Nc2ccc(C(F)(F)F)cc2)nc2cc(Oc3ccnc(-c4ncc(C(F)(F)F)[nH]4)c3)ccc21 + COCC[n+]1c2c(n(Cc3cnccn3)c1C)C(=O)c1ccccc1C2=O [YM155] (first compound 0.08 µM, partner dose 0.0004 µM)	267%
Clc1ccc(Nc2nnc(Cc3ccncc3)c3ccccc23)cc1 [vatalanib] + C#Cc1cccc(Nc2ncnc3cc(OCCOC)c(OCCOC)cc23)c1 [erlotinib] (first compound 2 µM, partner dose 0.8 µM)	125%
C=CCNC1=C2C[C@@H](C)C[C@H](OC)[C@H](O)[C@@H](C)/C=C(\C)[C@H](OC(N)=O)[C@@H](OC)/C=C\C=C(/C)C(=O)NC(=CC1=O)C2=O [Tanespimycin] + CC(C)CCN1c2nc(Nc3cc(F)c(O)c(F)c3)ncc2N(C)C(=O)C1C [BID1870] (first compound 0.002 µM, partner dose 0.2 µM)	94.2%

As entered above:
Cn1c(Nc2ccc(C(F)(F)F)cc2)nc2cc(Oc3ccnc(-c4ncc(C(F)(F)F)[nH]4)c3)ccc21 + Nc1cccc2c1CN(C1CCC(=O)NC1=O)C2=O [lenalidomide] (first compound 0.08 µM, partner dose 1 µM) | cleaved PARP positive nuclei fraction: 168%
Clc1ccc(Nc2nnc(Cc3ccncc3)c3ccccc23)cc1 [vatalanib] + C#Cc1cccc(Nc2ncnc3cc(OCCOC)c(OCCOC)cc23)c1 [erlotinib] (first compound 2 µM, partner dose 0.8 µM) | cleaved PARP positive nuclei fraction: 125%
